The values below come from the supplement of paper PMC8166895.

Counter-ions that a name gives are not always drawn. Some of the results follow. Most entries show no effect beyond the scatter of the controls.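 A single-replicate pilot screen of approved drugs and clinical or known-target compounds measured melting temperature via differential scanning fluorimetry. Top stabilizing hits raised the melting point by 2 °C or more; negative shifts indicate destabilization.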

The assay relates to SARS-CoV-2 main protease (Mpro, nsp5). Kind of assay: thermal shift ΔTm of Mpro relative to plate average Tm; higher = stronger thermal stabilization of Mpro (binding). The note with it: 10 µM; protein concentration 1 µM.
Turning to `CC(C=CC(=O)NO)=CC(C)C(=O)c1ccc(N(C)C)cc1` (stereo unspecified) [Trichostatin A (TSA)], the “thermal shift ΔTm of Mpro” value was -0.135 °C.
For `CN1[C@@H]2CC(O)C[C@H]1[C@@H]1O[C@@H]12` (stereo partly specified) [Scopine], the “thermal shift ΔTm of Mpro” value turned out to be 0.0498 °C.
To `OCc1ccccc1O[C@@H]1O[C@H](CO)[C@@H](O)[C@H](O)[C@H]1O` [Salicin] belongs 0.0772 °C; to `CN1C(CCl)Nc2cc(Cl)c(S(N)(=O)=O)cc2S1(=O)=O` (stereo unspecified) [Methyclothiazide], 0.122 °C; to `C=CC1=C(C(=O)O)N2C(=O)[C@@H](NC(=O)/C(=N\O)c3csc(N)n3)[C@H]2SC1` [Cefdinir], -0.0211 °C.
In the case of `Cc1cn([C@H]2C=C[C@@H](CO)O2)c(=O)[nH]c1=O` [Stavudine (d4T)], the “thermal shift ΔTm of Mpro” value worked out at 0.101 °C.
For the compound `CC(=O)NS(=O)(=O)c1ccc(N)cc1` [Sulfacetamide sodium salt hydrate], the “thermal shift ΔTm of Mpro” value is -1.37e-05 °C.
With `CC(=O)NS(=O)(=O)c1ccc(N)cc1` [Sulfacetamide Sodium], the “thermal shift ΔTm of Mpro” value is 0.215 °C.
For the compound `C=C1CC[C@@H]2[C@](C)(CO)[C@H](O)CC[C@@]2(C)[C@@H]1C/C=C1/C(=O)OC[C@H]1O` [Andrographolide], the “thermal shift ΔTm of Mpro” value was -0.0454 °C.
Then `Cc1ccc(S(=O)(=O)Cc2nc(-c3ccc(C(=O)NCc4cccnc4)cc3)oc2C)cc1`, with -0.043 °C; and `COc1nccnc1NS(=O)(=O)c1cccc(Cl)c1Cl`, with -0.045 °C.
To `c1ccc2c(c1)Sc1ccccc1N2CC1CN2CCC1CC2` (stereo unspecified) [Mequitazine] belongs 0.217 °C; to `Cc1cc(Cn2nnc3c(-c4ccco4)nc(N)nc32)ccc1N` [Vipadenant], 0.124 °C.
To `CCn1cc(C(=O)O)c(=O)c2c(N)c(F)c(NC3CCCCC3)cc21` belongs 0.0354 °C.
Take `CC/C(=C(\c1ccc(O)cc1)c1ccc(OCCNC)cc1)c1ccccc1` [Endoxifen HCl]: the “thermal shift ΔTm of Mpro” value was -0.358 °C.
With `CC/C(=C(\c1ccc(O)cc1)c1ccc(OCCNC)cc1)c1ccccc1` [(E/Z)-Endoxifen], the “thermal shift ΔTm of Mpro” value is -0.472 °C.
With `NCCCC[C@@H]1NC(=O)[C@@H](Cc2ccc(O)cc2)NC(=O)[C@H](CC(=O)O)NC(=O)CNC(=O)[C@H](CCCN=C(N)N)NC1=O` [Cyclo(RGDyK)], the “thermal shift ΔTm of Mpro” value came out at 0.0913 °C.
Consider `CNC(=O)c1cc(Oc2ccc(NC(=O)Nc3ccc(Cl)c(C(F)(F)F)c3)cc2)ccn1` [Sorafenib Tosylate], for which the “thermal shift ΔTm of Mpro” value was determined as 0.542 °C.
Then `CNC(=O)c1cc(Oc2ccc(NC(=O)Nc3ccc(Cl)c(C(F)(F)F)c3)cc2)ccn1` [Sorafenib], with 1.08 °C; and `CNC(=O)c1ccccc1Nc1cc(Nc2ccc(N3CCOCC3)cc2OC)ncc1C(F)(F)F`, with -0.0123 °C.
Take `COc1cccc2c1C(=O)c1c(O)c3c(c(O)c1C2=O)C[C@@](O)(C(C)=O)C[C@@H]3O[C@H]1C[C@H](N)[C@H](O)[C@H](C)O1` [Daunorubicin HCl]: the “thermal shift ΔTm of Mpro” value is 0.0173 °C.
